# Measurements published in the supplement of paper PMC8728848.
# This is one part of the list.
# B1: Mcg Light Chain Dimer (Homo sapiens), Q6PIK1 (protein)
# chain: MAGFPLLLTLLTHCAGSWGQSLLTQPPSVSGTPGQRVTISCSGSSSNIGINYVYWYQQIPGTAPKLLISTNDQRPSGVPDRFSGSKSGTSASLAIGGLRSEDEAHYYCAAWDDSMSGPGYAFGTGTKVTVLRQPKANPTVTLFPPSSEELQANKATLVCLISDFYPGAVTVAWKADGSPVKAGVETTKPSKQSNNKYAASSYLSLTPEQWKSHRSYSCQVTHEGSTVEKTVAPTECS
# How the values were obtained:
# Test in all cases: glycan array binding signal (z-score within array); higher = stronger binding
# Conditions in all cases: glycan notation: IUPAC condensed, linker removed
# [1] = molecular target: Neu5Ac(a2-3)Gal(b1-3)[Fuc(a1-4)]GlcNAc
# Outline: (§1)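 The Consortium for Functional Glycomics database supplied 3228 glycan arrays, of which those lacking an available protein sequence were dropped. The binding signal, a within-array Z-score, was averaged across arrays of the same protein sequence and across linkers. Negative scores can be read as non-binding.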
# [2] = molecular target: Neu5Ac(a2-3)Gal(b1-3)[Fuc(a1-4)]GlcNAc(b1-3)Gal(b1-4)[Fuc(a1-3)]GlcNAc
# Outline: as §1
# [3] = molecular target: Neu5Ac(a2-3)Gal(b1-3)[Neu5Ac(a2-3)Gal(b1-4)]GlcNAc
# Outline: as §1
# [4] = molecular target: Neu5Ac(a2-3)Gal(b1-3)[Neu5Ac(a2-6)]GalNAc
# Outline: as §1
# Neu5Ac(a2-3)Gal(b1-4)Glc = molecular target: Neu5Ac(a2-3)Gal(b1-4)Glc
# Outline: as §1
# [5] = molecular target: Neu5Ac(a2-3)Gal(b1-4)GlcNAc
# Outline: as §1
# [6] = molecular target: Neu5Ac(a2-3)Gal(b1-4)GlcNAc(b1-2)Man(a1-3)[GlcNAc(b1-2)Man(b1-4)GlcNAc(b1-2)Man(a1-6)]Man(b1-4)GlcNAc(b1-4)GlcNAc
# Outline: as §1
# [7] = molecular target: Neu5Ac(a2-3)Gal(b1-4)GlcNAc(b1-2)Man(a1-3)[Neu5Ac(a2-6)Gal(b1-4)GlcNAc(b1-2)Man(a1-6)]Man(b1-4)GlcNAc(b1-4)GlcNAc
# Outline: as §1
# [8] = molecular target: Neu5Ac(a2-3)Gal(b1-4)GlcNAc(b1-3)Gal(b1-3)GlcNAc
# Outline: as §1
# [9] = molecular target: Neu5Ac(a2-3)Gal(b1-4)GlcNAc(b1-3)Gal(b1-4)GlcNAc
# Outline: as §1
# [10] = molecular target: Neu5Ac(a2-3)Gal(b1-4)GlcNAc(b1-3)Gal(b1-4)GlcNAc(b1-3)Gal(b1-4)GlcNAc
# Outline: as §1
# [11] = molecular target: Neu5Ac(a2-3)Gal(b1-4)GlcNAc(b1-3)Gal(b1-4)[Fuc(a1-3)]GlcNAc
# Outline: as §1
# [12] = molecular target: Neu5Ac(a2-3)Gal(b1-4)GlcNAc(b1-6)[Gal(b1-3)]GalNAc
# Outline: as §1
# [13] = molecular target: Neu5Ac(a2-3)Gal(b1-4)GlcNAc(b1-6)[Neu5Ac(a2-3)Gal(b1-3)]GalNAc
# Outline: as §1
# [14] = molecular target: Neu5Ac(a2-3)Gal(b1-4)GlcNAc6S
# Outline: as §1
# [15] = molecular target: Neu5Ac(a2-3)Gal(b1-4)[Fuc(a1-3)]GlcNAc
# Outline: as §1
# [16] = molecular target: Neu5Ac(a2-3)Gal(b1-4)[Fuc(a1-3)]GlcNAc(b1-3)Gal
# Outline: as §1
# [17] = molecular target: Neu5Ac(a2-3)Gal(b1-4)[Fuc(a1-3)]GlcNAc(b1-3)Gal(b1-4)GlcNAc
# Outline: as §1
# [18] = molecular target: Neu5Ac(a2-3)Gal(b1-4)[Fuc(a1-3)]GlcNAc(b1-3)Gal(b1-4)[Fuc(a1-3)]GlcNAc(b1-3)Gal(b1-4)[Fuc(a1-3)]GlcNAc
# Outline: as §1
# [19] = molecular target: Neu5Ac(a2-3)Gal(b1-4)[Fuc(a1-3)]GlcNAc(b1-6)[Gal(b1-3)]GalNAc
# Outline: as §1
# [20] = molecular target: Neu5Ac(a2-3)Gal(b1-4)[Fuc(a1-3)]GlcNAc6S
# Outline: as §1
# [21] = molecular target: Neu5Ac(a2-3)Gal6S(b1-4)GlcNAc
# Outline: as §1
# [22] = molecular target: Neu5Ac(a2-3)Gal6S(b1-4)[Fuc(a1-3)]GlcNAc
# Outline: as §1
# Neu5Ac(a2-3)GalNAc = molecular target: Neu5Ac(a2-3)GalNAc
# Outline: as §1
# [23] = molecular target: Neu5Ac(a2-3)GalNAc(b1-4)GlcNAc
# Outline: as §1
# [24] = molecular target: Neu5Ac(a2-3)[GalNAc(b1-4)]Gal(b1-4)Glc
# Outline: as §1
# [25] = molecular target: Neu5Ac(a2-3)[GalNAc(b1-4)]Gal(b1-4)GlcNAc
# Outline: as §1
# [26] = molecular target: Neu5Ac(a2-3)[Neu5Ac(a2-6)]GalNAc
# Outline: as §1
# Neu5Ac(a2-6)Gal = molecular target: Neu5Ac(a2-6)Gal
# Outline: as §1
# Neu5Ac(a2-6)Gal(b1-4)Glc = molecular target: Neu5Ac(a2-6)Gal(b1-4)Glc
# Outline: as §1
# [27] = molecular target: Neu5Ac(a2-6)Gal(b1-4)GlcNAc
# Outline: as §1
# [28] = molecular target: Neu5Ac(a2-6)Gal(b1-4)GlcNAc(b1-2)Man(a1-3)[Gal(b1-4)GlcNAc(b1-2)Man(a1-6)]Man(b1-4)GlcNAc(b1-4)GlcNAc
# Outline: as §1
# [29] = molecular target: Neu5Ac(a2-6)Gal(b1-4)GlcNAc(b1-2)Man(a1-3)[GlcNAc(b1-2)Man(a1-6)]Man(b1-4)GlcNAc(b1-4)GlcNAc
# Outline: as §1
# [30] = molecular target: Neu5Ac(a2-6)Gal(b1-4)GlcNAc(b1-2)Man(a1-3)[GlcNAc(b1-2)Man(b1-4)GlcNAc(b1-2)Man(a1-6)]Man(b1-4)GlcNAc(b1-4)GlcNAc
# Outline: as §1
# [31] = molecular target: Neu5Ac(a2-6)Gal(b1-4)GlcNAc(b1-2)Man(a1-3)[Neu5Ac(a2-6)Gal(b1-4)GlcNAc(b1-2)Man(a1-6)]Man(b1-4)GlcNAc(b1-4)GlcNAc
# Outline: as §1
# [32] = molecular target: Neu5Ac(a2-6)Gal(b1-4)GlcNAc(b1-2)Man(a1-6)[Gal(b1-4)GlcNAc(b1-2)Man(a1-3)]Man(b1-4)GlcNAc(b1-4)GlcNAc
# Outline: as §1
# [33] = molecular target: Neu5Ac(a2-6)Gal(b1-4)GlcNAc(b1-2)Man(a1-6)[GlcNAc(b1-2)Man(a1-3)]Man(b1-4)GlcNAc(b1-4)GlcNAc
# Outline: as §1
# [34] = molecular target: Neu5Ac(a2-6)Gal(b1-4)GlcNAc(b1-3)Gal(b1-4)GlcNAc
# Outline: as §1
# [35] = molecular target: Neu5Ac(a2-6)Gal(b1-4)GlcNAc(b1-3)Gal(b1-4)[Fuc(a1-3)]GlcNAc(b1-3)Gal(b1-4)[Fuc(a1-3)]GlcNAc
# Outline: as §1
# [36] = molecular target: Neu5Ac(a2-6)Gal(b1-4)GlcNAc6S
# Outline: as §1
# Neu5Ac(a2-6)GalNAc = molecular target: Neu5Ac(a2-6)GalNAc
# Outline: as §1
# [37] = molecular target: Neu5Ac(a2-6)GalNAc(b1-4)GlcNAc
# Outline: as §1
# Neu5Ac(a2-8)Neu5Ac = molecular target: Neu5Ac(a2-8)Neu5Ac
# Outline: as §1
# [38] = molecular target: Neu5Ac(a2-8)Neu5Ac(a2-3)Gal(b1-4)Glc
# Outline: as §1
# [39] = molecular target: Neu5Ac(a2-8)Neu5Ac(a2-3)[GalNAc(b1-4)]Gal(b1-4)Glc
# Outline: as §1
# [40] = molecular target: Neu5Ac(a2-8)Neu5Ac(a2-8)Neu5Ac
# Outline: as §1
# [41] = molecular target: Neu5Ac(a2-8)Neu5Ac(a2-8)Neu5Ac(a2-3)Gal(b1-4)Glc
# Outline: as §1
# [42] = molecular target: Neu5Ac(a2-8)Neu5Ac(a2-8)Neu5Ac(a2-3)[GalNAc(b1-4)]Gal(b1-4)Glc
# Outline: as §1
# [43] = molecular target: Neu5Ac(a2-8)Neu5Ac(a2-8)Neu5Ac(a2-8)Neu5Ac(a2-3)[GalNAc(b1-4)]Gal(b1-4)Glc
# Outline: as §1
# [44] = molecular target: Neu5Ac(b2-6)Gal(b1-4)GlcNAc
# Outline: as §1
# Neu5Ac(b2-6)GalNAc = molecular target: Neu5Ac(b2-6)GalNAc
# Outline: as §1
# [45] = molecular target: Neu5Ac9Ac(a2-6)Gal(b1-4)GlcNAc
# Outline: as §1
# [46] = molecular target: Neu5Gc(a2-3)Gal(b1-3)GlcNAc
# Outline: as §1
# [47] = molecular target: Neu5Gc(a2-3)Gal(b1-3)[Fuc(a1-4)]GlcNAc
# Outline: as §1
# Neu5Gc(a2-3)Gal(b1-4)Glc = molecular target: Neu5Gc(a2-3)Gal(b1-4)Glc
# Outline: as §1
# [48] = molecular target: Neu5Gc(a2-3)Gal(b1-4)GlcNAc
# Outline: as §1
# [49] = molecular target: Neu5Gc(a2-3)Gal(b1-4)[Fuc(a1-3)]GlcNAc
# Outline: as §1
# [50] = molecular target: Neu5Gc(a2-6)Gal(b1-4)GlcNAc
# Outline: as §1
# Neu5Gc(a2-6)GalNAc = molecular target: Neu5Gc(a2-6)GalNAc
# Outline: as §1
# [51] = molecular target: Neu5Gc(b2-6)Gal(b1-4)GlcNAc
# Outline: as §1
binder,measurement,setting,value
B1,glycan array binding signal (z-score),[1],-0.943
same,glycan array binding signal (z-score),[2],0.959
same,glycan array binding signal (z-score),[3],-0.936
same,glycan array binding signal (z-score),[4],-0.754
same,glycan array binding signal (z-score),Neu5Ac(a2-3)Gal(b1-4)Glc,0.297
same,glycan array binding signal (z-score),[5],0.272
same,glycan array binding signal (z-score),[6],1.13
same,glycan array binding signal (z-score),[7],-0.72
same,glycan array binding signal (z-score),[8],0.968
same,glycan array binding signal (z-score),[9],-0.627
same,glycan array binding signal (z-score),[10],1.93
same,glycan array binding signal (z-score),[11],-0.709
same,glycan array binding signal (z-score),[12],0.43
same,glycan array binding signal (z-score),[13],1.19
same,glycan array binding signal (z-score),[14],2.96
same,glycan array binding signal (z-score),[15],-0.14
same,glycan array binding signal (z-score),[16],-0.852
same,glycan array binding signal (z-score),[17],1.2
same,glycan array binding signal (z-score),[18],0.952
same,glycan array binding signal (z-score),[19],0.763
same,glycan array binding signal (z-score),[20],-0.146
same,glycan array binding signal (z-score),[21],1.83
same,glycan array binding signal (z-score),[22],2.77
same,glycan array binding signal (z-score),Neu5Ac(a2-3)GalNAc,0.972
same,glycan array binding signal (z-score),[23],-0.859
same,glycan array binding signal (z-score),[24],-0.742
same,glycan array binding signal (z-score),[25],0.214
same,glycan array binding signal (z-score),[26],-0.552
same,glycan array binding signal (z-score),Neu5Ac(a2-6)Gal,0.635
same,glycan array binding signal (z-score),Neu5Ac(a2-6)Gal(b1-4)Glc,0.116
same,glycan array binding signal (z-score),[27],-0.24
same,glycan array binding signal (z-score),[28],0.991
same,glycan array binding signal (z-score),[29],-0.753
same,glycan array binding signal (z-score),[30],-0.76
same,glycan array binding signal (z-score),[31],-0.154
same,glycan array binding signal (z-score),[32],0.533
same,glycan array binding signal (z-score),[33],-0.928
same,glycan array binding signal (z-score),[34],-0.777
same,glycan array binding signal (z-score),[35],1.03
same,glycan array binding signal (z-score),[36],-0.267
same,glycan array binding signal (z-score),Neu5Ac(a2-6)GalNAc,-1.03
same,glycan array binding signal (z-score),[37],0.429
same,glycan array binding signal (z-score),Neu5Ac(a2-8)Neu5Ac,0.574
same,glycan array binding signal (z-score),[38],0.933
same,glycan array binding signal (z-score),[39],1.28
same,glycan array binding signal (z-score),[40],-0.069
same,glycan array binding signal (z-score),[41],-0.874
same,glycan array binding signal (z-score),[42],0.66
same,glycan array binding signal (z-score),[43],-0.996
same,glycan array binding signal (z-score),[44],-0.955
same,glycan array binding signal (z-score),Neu5Ac(b2-6)GalNAc,-0.173
same,glycan array binding signal (z-score),[45],-0.975
same,glycan array binding signal (z-score),[46],-0.735
same,glycan array binding signal (z-score),[47],0.41
same,glycan array binding signal (z-score),Neu5Gc(a2-3)Gal(b1-4)Glc,0.902
same,glycan array binding signal (z-score),[48],-0.746
same,glycan array binding signal (z-score),[49],1.2
same,glycan array binding signal (z-score),[50],0.325
same,glycan array binding signal (z-score),Neu5Gc(a2-6)GalNAc,-0.859
same,glycan array binding signal (z-score),[51],-0.855

# Some of the entries so far, bar-delimited.
binder | measurement | setting | value
B1 | glycan array binding signal (z-score) | [40] | -0.069
same | glycan array binding signal (z-score) | [41] | -0.874
same | glycan array binding signal (z-score) | [42] | 0.66
same | glycan array binding signal (z-score) | [43] | -0.996
same | glycan array binding signal (z-score) | [44] | -0.955
